Seven molecules from PMC4405695 can be followed below.

The chains behind the UniProt entries cited, without tags or fusion partners. Where a name states a change or a piece, a line headed by the entry shows the natural chain unless it says otherwise.
UniProt P20340: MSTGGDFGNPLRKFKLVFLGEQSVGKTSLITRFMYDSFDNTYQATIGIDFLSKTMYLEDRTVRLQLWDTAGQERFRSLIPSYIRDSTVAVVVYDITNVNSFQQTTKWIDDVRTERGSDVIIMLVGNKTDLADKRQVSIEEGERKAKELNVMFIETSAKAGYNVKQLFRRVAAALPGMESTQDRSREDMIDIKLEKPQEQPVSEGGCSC

Results are given in words; binding and its absence hold for the method and conditions named. In cells and extracts the contact can be indirect. Some results given as binding are weak or reduced against the parent protein; the word gives no strength. For some of these results: Sequences can lack the tags named with a protein.

The target in experiment [1] is GST-Rab6A Q72L (UniProt P20340). The experiment is described as follows: pull-down; data not shown; KIF1C constructs with GST-Rab6A; only the target purified.
For experiment [2] the target is unchanged. Put plainly: pull-down; in vitro translated myc-KIF1C constructs (optimally 11.25 nM) with GTPγS-loaded GST-Rabs (0.2-5 μM), Buffer A plus 1 mM DTT, 1 hr 25°C, glutathione-Sepharose, washes with 400 mM NaCl; anti-myc immunoblot; only the target purified. (A western blot detects proteins with antibodies after separation by electrophoresis.)
Experiment [3] concerns the target GFP-Rab6A (UniProt P20340). The experiment is described as follows: co-IP; HEK293 cells transfected 48 hr; lysis in 50 mM Hepes pH 7.4, 150 mM NaCl, 1% CHAPS; llama GFP-binding protein on Sepharose; immunoblot with anti-myc or anti-Rab6A.
Experiment [4] concerns the target His-Rab6A (UniProt P20340). The experiment is described as follows: co-sedimentation; desalted in vitro synthesized 35S-myc-KIF1C with GTPγS-preloaded His-Rabs (4.2 μM), then 0.8 µg/µl Paclitaxel stabilized microtubules, 2.5 mM ADP, 0.5 mM GTPγS; 10% sucrose cushion; scintillation counting; only the target purified.

B1: KIF1C construct containing the first 400 amino acid residues (domain or fragment, UniProt O43896 1-400)
chain: MAGASVKVAVRVRPFNARETSQDAKCVVSMQGNTTSIINPKQSKDAPKSFTFDYSYWSHTSTEDPQFASQQQVYRDIGEEMLLHAFEGYNVCIFAYGQTGAGKSYTMMGRQEPGQQGIVPQLCEDLFSRVSENQSAQLSYSVEVSYMEIYCERVRDLLNPKSRGSLRVREHPILGPYVQDLSKLAVTSYADIADLMDCGNKARTVAATNMNETSSRSHAVFTIVFTQRCHDQLTGLDSEKVSKISLVDLAGSERADSSGARGMRLKEGANINKSLTTLGKVISALADMQSKKRKSDFIPYRDSVLTWLLKENLGGNSRTAMIAALSPADINYEETLSTLRYADRTKQIRCNAIINEDPNARLIRELQEEVARLRELLMAQGLSASALEGLKTEEGSVRGA
As for B1, in experiment [1], the binding result is “binds”.

B2: KIF1C construct containing the first 500 amino acid residues (domain or fragment, UniProt O43896 1-500)
chain: MAGASVKVAVRVRPFNARETSQDAKCVVSMQGNTTSIINPKQSKDAPKSFTFDYSYWSHTSTEDPQFASQQQVYRDIGEEMLLHAFEGYNVCIFAYGQTGAGKSYTMMGRQEPGQQGIVPQLCEDLFSRVSENQSAQLSYSVEVSYMEIYCERVRDLLNPKSRGSLRVREHPILGPYVQDLSKLAVTSYADIADLMDCGNKARTVAATNMNETSSRSHAVFTIVFTQRCHDQLTGLDSEKVSKISLVDLAGSERADSSGARGMRLKEGANINKSLTTLGKVISALADMQSKKRKSDFIPYRDSVLTWLLKENLGGNSRTAMIAALSPADINYEETLSTLRYADRTKQIRCNAIINEDPNARLIRELQEEVARLRELLMAQGLSASALEGLKTEEGSVRGALPAVSSPPAPVSPSSPTTHNGELEPSFSPNTESQIGPEEAMERLQETEKIIAELNETWEEKLRKTEALRMEREALLAEMGVAVREDGGTVGVFSPKKTPH
For the molecule B2, the binding entry in experiment [1] is on record as “binds”.

B3: myc-KIF1CΔCBD (domain or fragment, UniProt O43896 1-1060)
chain: MAGASVKVAVRVRPFNARETSQDAKCVVSMQGNTTSIINPKQSKDAPKSFTFDYSYWSHTSTEDPQFASQQQVYRDIGEEMLLHAFEGYNVCIFAYGQTGAGKSYTMMGRQEPGQQGIVPQLCEDLFSRVSENQSAQLSYSVEVSYMEIYCERVRDLLNPKSRGSLRVREHPILGPYVQDLSKLAVTSYADIADLMDCGNKARTVAATNMNETSSRSHAVFTIVFTQRCHDQLTGLDSEKVSKISLVDLAGSERADSSGARGMRLKEGANINKSLTTLGKVISALADMQSKKRKSDFIPYRDSVLTWLLKENLGGNSRTAMIAALSPADINYEETLSTLRYADRTKQIRCNAIINEDPNARLIRELQEEVARLRELLMAQGLSASALEGLKTEEGSVRGALPAVSSPPAPVSPSSPTTHNGELEPSFSPNTESQIGPEEAMERLQETEKIIAELNETWEEKLRKTEALRMEREALLAEMGVAVREDGGTVGVFSPKKTPHLVNLNEDPLMSECLLYHIKDGVTRVGQVDMDIKLTGQFIREQHCLFRSIPQPDGEVVVTLEPCEGAETYVNGKLVTEPLVLKSGNRIVMGKNHVFRFNHPEQARLERERGVPPPPGPPSEPVDWNFAQKELLEQQGIDIKLEMEKRLQDLENQYRKEKEEADLLLEQQRLYADSDSGDDSDKRSCEESWRLISSLREQLPPTTVQTIVKRCGLPSSGKRRAPRRVYQIPQRRRLQGKDPRWATMADLKMQAVKEICYEVALADFRHGRAEIEALAALKMRELCRTYGKPDGPGDAWRAVARDVWDTVGEEEGGGAGSGGGSEEGARGAEVEDLRAHIDKLTGILQEVKLQNSSKDRELQALRDRMLRMERVIPLAQDHEDENEEGGEVPWAPPEGSEAAEEAAPSDRMPSARPPSPPLSSWERVSRLMEEDPAFRRGRLRWLKQEQLRLQGLQGSGGRGGGLRRPPARFVPPHDCKLRFPFKSNPQHRESWPGMGSGEAPTPLQPPEEVTPHPATPARRPPSPRRSHHPRRNSLDGGGRSRGAGSAQPEPQHFQPKKHNS
For the molecule B3, in experiment [2], the binding entry was “binds”.

B4: full-length myc-KIF1C (protein, UniProt O43896 1-1103)
chain: MAGASVKVAVRVRPFNARETSQDAKCVVSMQGNTTSIINPKQSKDAPKSFTFDYSYWSHTSTEDPQFASQQQVYRDIGEEMLLHAFEGYNVCIFAYGQTGAGKSYTMMGRQEPGQQGIVPQLCEDLFSRVSENQSAQLSYSVEVSYMEIYCERVRDLLNPKSRGSLRVREHPILGPYVQDLSKLAVTSYADIADLMDCGNKARTVAATNMNETSSRSHAVFTIVFTQRCHDQLTGLDSEKVSKISLVDLAGSERADSSGARGMRLKEGANINKSLTTLGKVISALADMQSKKRKSDFIPYRDSVLTWLLKENLGGNSRTAMIAALSPADINYEETLSTLRYADRTKQIRCNAIINEDPNARLIRELQEEVARLRELLMAQGLSASALEGLKTEEGSVRGALPAVSSPPAPVSPSSPTTHNGELEPSFSPNTESQIGPEEAMERLQETEKIIAELNETWEEKLRKTEALRMEREALLAEMGVAVREDGGTVGVFSPKKTPHLVNLNEDPLMSECLLYHIKDGVTRVGQVDMDIKLTGQFIREQHCLFRSIPQPDGEVVVTLEPCEGAETYVNGKLVTEPLVLKSGNRIVMGKNHVFRFNHPEQARLERERGVPPPPGPPSEPVDWNFAQKELLEQQGIDIKLEMEKRLQDLENQYRKEKEEADLLLEQQRLYADSDSGDDSDKRSCEESWRLISSLREQLPPTTVQTIVKRCGLPSSGKRRAPRRVYQIPQRRRLQGKDPRWATMADLKMQAVKEICYEVALADFRHGRAEIEALAALKMRELCRTYGKPDGPGDAWRAVARDVWDTVGEEEGGGAGSGGGSEEGARGAEVEDLRAHIDKLTGILQEVKLQNSSKDRELQALRDRMLRMERVIPLAQDHEDENEEGGEVPWAPPEGSEAAEEAAPSDRMPSARPPSPPLSSWERVSRLMEEDPAFRRGRLRWLKQEQLRLQGLQGSGGRGGGLRRPPARFVPPHDCKLRFPFKSNPQHRESWPGMGSGEAPTPLQPPEEVTPHPATPARRPPSPRRSHHPRRNSLDGGGRSRGAGSAQPEPQHFQPKKHNSYPQPPQPYPAQRPPGPRYPPYTTPPRMRRQRSAPDLKESGAAV
As for B4, in experiment [3], the binding result is given as “binds”.

B5: in vitro synthesized 35S-myc-KIF1C (protein, UniProt O43896 1-1103)
chain: MAGASVKVAVRVRPFNARETSQDAKCVVSMQGNTTSIINPKQSKDAPKSFTFDYSYWSHTSTEDPQFASQQQVYRDIGEEMLLHAFEGYNVCIFAYGQTGAGKSYTMMGRQEPGQQGIVPQLCEDLFSRVSENQSAQLSYSVEVSYMEIYCERVRDLLNPKSRGSLRVREHPILGPYVQDLSKLAVTSYADIADLMDCGNKARTVAATNMNETSSRSHAVFTIVFTQRCHDQLTGLDSEKVSKISLVDLAGSERADSSGARGMRLKEGANINKSLTTLGKVISALADMQSKKRKSDFIPYRDSVLTWLLKENLGGNSRTAMIAALSPADINYEETLSTLRYADRTKQIRCNAIINEDPNARLIRELQEEVARLRELLMAQGLSASALEGLKTEEGSVRGALPAVSSPPAPVSPSSPTTHNGELEPSFSPNTESQIGPEEAMERLQETEKIIAELNETWEEKLRKTEALRMEREALLAEMGVAVREDGGTVGVFSPKKTPHLVNLNEDPLMSECLLYHIKDGVTRVGQVDMDIKLTGQFIREQHCLFRSIPQPDGEVVVTLEPCEGAETYVNGKLVTEPLVLKSGNRIVMGKNHVFRFNHPEQARLERERGVPPPPGPPSEPVDWNFAQKELLEQQGIDIKLEMEKRLQDLENQYRKEKEEADLLLEQQRLYADSDSGDDSDKRSCEESWRLISSLREQLPPTTVQTIVKRCGLPSSGKRRAPRRVYQIPQRRRLQGKDPRWATMADLKMQAVKEICYEVALADFRHGRAEIEALAALKMRELCRTYGKPDGPGDAWRAVARDVWDTVGEEEGGGAGSGGGSEEGARGAEVEDLRAHIDKLTGILQEVKLQNSSKDRELQALRDRMLRMERVIPLAQDHEDENEEGGEVPWAPPEGSEAAEEAAPSDRMPSARPPSPPLSSWERVSRLMEEDPAFRRGRLRWLKQEQLRLQGLQGSGGRGGGLRRPPARFVPPHDCKLRFPFKSNPQHRESWPGMGSGEAPTPLQPPEEVTPHPATPARRPPSPRRSHHPRRNSLDGGGRSRGAGSAQPEPQHFQPKKHNSYPQPPQPYPAQRPPGPRYPPYTTPPRMRRQRSAPDLKESGAAV
modifications: 35S-methionine
Turning to B5, the binding result in experiment [4] was “binds”.

B6: myc-KIF1C-350 K103A (domain or fragment, UniProt O43896 1-350)
chain: MAGASVKVAVRVRPFNARETSQDAKCVVSMQGNTTSIINPKQSKDAPKSFTFDYSYWSHTSTEDPQFASQQQVYRDIGEEMLLHAFEGYNVCIFAYGQTGAGASYTMMGRQEPGQQGIVPQLCEDLFSRVSENQSAQLSYSVEVSYMEIYCERVRDLLNPKSRGSLRVREHPILGPYVQDLSKLAVTSYADIADLMDCGNKARTVAATNMNETSSRSHAVFTIVFTQRCHDQLTGLDSEKVSKISLVDLAGSERADSSGARGMRLKEGANINKSLTTLGKVISALADMQSKKRKSDFIPYRDSVLTWLLKENLGGNSRTAMIAALSPADINYEETLSTLRYADRTKQIRC
Take B6: the binding result in experiment [2] was “binds”.

B7: myc-KIF1C ΔmotorΔCBD (domain or fragment, UniProt O43896 450-1060)
chain: IIAELNETWEEKLRKTEALRMEREALLAEMGVAVREDGGTVGVFSPKKTPHLVNLNEDPLMSECLLYHIKDGVTRVGQVDMDIKLTGQFIREQHCLFRSIPQPDGEVVVTLEPCEGAETYVNGKLVTEPLVLKSGNRIVMGKNHVFRFNHPEQARLERERGVPPPPGPPSEPVDWNFAQKELLEQQGIDIKLEMEKRLQDLENQYRKEKEEADLLLEQQRLYADSDSGDDSDKRSCEESWRLISSLREQLPPTTVQTIVKRCGLPSSGKRRAPRRVYQIPQRRRLQGKDPRWATMADLKMQAVKEICYEVALADFRHGRAEIEALAALKMRELCRTYGKPDGPGDAWRAVARDVWDTVGEEEGGGAGSGGGSEEGARGAEVEDLRAHIDKLTGILQEVKLQNSSKDRELQALRDRMLRMERVIPLAQDHEDENEEGGEVPWAPPEGSEAAEEAAPSDRMPSARPPSPPLSSWERVSRLMEEDPAFRRGRLRWLKQEQLRLQGLQGSGGRGGGLRRPPARFVPPHDCKLRFPFKSNPQHRESWPGMGSGEAPTPLQPPEEVTPHPATPARRPPSPRRSHHPRRNSLDGGGRSRGAGSAQPEPQHFQPKKHNS
Regarding B7, in experiment [2], the binding entry is on record as “no binding (tested: 0.2 μM GST-Rab6A Q72L)”.
